Measured values: patent US11873354B2, “Photobase generator, compound, photoreactive composition, and reaction product” (Tokyo University of Science Foundation, priority 2019, dated 2024)

Experiment: Behavior in polymer solid under light irradiation, FT-IR (Test Examples 9, 10)
Type: physicochemical
Conditions: in polytetramethylene glycol film, 313 nm or 365 nm, as exposure doses increased

CC1=NCCN1C(=O)/C=C/c1cc(C(C)(C)C)cc(C(C)(C)C)c1O [Compound (1)-3]
peak intensity derived from the amide group: decreased
peak intensity derived from the lactone structure: increased
